{"source": "paper PMC7819943", "about": "“Rice protein-binding microarrays: a tool to detect cis-acting elements near promoter regions in rice”", "note": "This is one part of the list."}
{"target": "T1, OsSMF1 (Oryza sativa, UniProt Q6ZLB0 1-436)", "T1 sequence": "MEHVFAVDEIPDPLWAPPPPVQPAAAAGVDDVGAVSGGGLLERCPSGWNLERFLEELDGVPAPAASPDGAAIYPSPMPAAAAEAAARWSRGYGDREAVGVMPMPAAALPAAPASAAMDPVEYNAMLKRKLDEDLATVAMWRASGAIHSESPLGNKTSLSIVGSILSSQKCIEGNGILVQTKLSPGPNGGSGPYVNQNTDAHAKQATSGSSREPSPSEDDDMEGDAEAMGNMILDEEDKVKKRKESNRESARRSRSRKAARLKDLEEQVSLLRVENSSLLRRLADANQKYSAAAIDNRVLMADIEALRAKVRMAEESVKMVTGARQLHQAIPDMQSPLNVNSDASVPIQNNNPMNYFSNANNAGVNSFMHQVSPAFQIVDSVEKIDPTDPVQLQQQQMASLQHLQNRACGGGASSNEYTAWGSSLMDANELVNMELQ", "assay": "protein-binding microarray (RPBM); PBS, 2% BSA, 51.3 ng/ul salmon testes DNA, 50 uM zinc acetate, 200 nM TF, 25 C, 1 h; high values mean tight binding", "conditions": "protein: recombinant; tags: N-terminal polyhistidine and DsRed monomer fusion (pET32a); chain copies: 2; label: CyDye5-dUTP incorporated in the synthesized complementary strand; 3' TTTTT single-stranded linker to array surface; dsDNA, one strand shown", "outline": "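The binding signal is fluorescence intensity per array feature (arbitrary units). Readings came from an Axon 4000B scanner after a washed, 2% BSA-blocked, double-stranded custom Agilent array had been incubated for 1 h at 25 °C with 200 nM protein and 50 µM zinc acetate. The protein was a Ni–NTA-purified transcription factor fused N-terminally to polyhistidine and DsRed, expressed in E. coli BL21-CodonPlus.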"}
{"sequence": "CTATAGCACAACGACCTTATTCTATCTCTCGTCAACGCTTCGGAGTCACCTAGTGCAG", "binding signal": "13500 fluorescence intensity (a.u.)"}
{"sequence": "TTCCCTAGACTGTTTTGGGTGTCACTGGTTTGGCGGTTACCGGAGTCACCTAGTGCAG", "binding signal": "3760 fluorescence intensity (a.u.)"}
{"sequence": "TAGTTATAAAGCACTGTAATTTTAGTTATAAATACAACATCGGAGTCACCTAGTGCAG", "binding signal": "3260 fluorescence intensity (a.u.)"}
{"sequence": "CGTAGCTACGACTTCGAGAAATGACATGTCATCGGTGCCTCGGAGTCACCTAGTGCAG", "binding signal": "13300 fluorescence intensity (a.u.)"}
{"sequence": "TTTAATTTTAACGTTAACTAAACACACCCTTAGTACTGGACGGAGTCACCTAGTGCAG", "binding signal": "3990 fluorescence intensity (a.u.)"}
{"sequence": "GAAACCACCGCCATGCCGCCCTTTTGCTGCCCACGTCGCCCGGAGTCACCTAGTGCAG", "binding signal": "3780 fluorescence intensity (a.u.)"}
{"sequence": "TTATACCCATACGTGTTCCCTTTTCCAAGTAGAACTAGGGCGGAGTCACCTAGTGCAG", "binding signal": "5120 fluorescence intensity (a.u.)"}
{"sequence": "GGAACCGAGAGAACGACCTGCTCGACGCGTGGACTCGGCGCGGAGTCACCTAGTGCAG", "binding signal": "4990 fluorescence intensity (a.u.)"}
{"sequence": "TCATCTCCCCATCTCATTGGCAGCGGCTGCCGGATAAAATCGGAGTCACCTAGTGCAG", "binding signal": "3560 fluorescence intensity (a.u.)"}
{"sequence": "CACAAAATGCATATGATGTGTCAATTGTTCTTAATTTGACCGGAGTCACCTAGTGCAG", "binding signal": "4720 fluorescence intensity (a.u.)"}
{"sequence": "GATTCTAATGGATGAATTGATGGTGTGGCGTATGTGATAGCGGAGTCACCTAGTGCAG", "binding signal": "3980 fluorescence intensity (a.u.)"}
{"sequence": "CTTAGCTCAACACTATATAGTACTGCATGCGTTTGATATACGGAGTCACCTAGTGCAG", "binding signal": "3870 fluorescence intensity (a.u.)"}
{"sequence": "CATGCAGTGCAGCACAGTCACACGCTGATAATACGTCATACGGAGTCACCTAGTGCAG", "binding signal": "5680 fluorescence intensity (a.u.)"}
{"sequence": "ATCCGGCGGCAGTTAGCTATGGTGGCATCGATGACGGCCACGGAGTCACCTAGTGCAG", "binding signal": "3200 fluorescence intensity (a.u.)"}
{"sequence": "CCGCCACCACCCGTGCCCGCCGCATCCAGCTCATCTCCGTCGGAGTCACCTAGTGCAG", "binding signal": "5960 fluorescence intensity (a.u.)"}
{"sequence": "AAAGGGGAACTTCAGGGCGTGACACCCGCTGCTCTTCTCTCGGAGTCACCTAGTGCAG", "binding signal": "3350 fluorescence intensity (a.u.)"}
{"sequence": "ACGGCAAAATTTGCCACAGGACACGTAAAATACGTGTAATCGGAGTCACCTAGTGCAG", "binding signal": "5050 fluorescence intensity (a.u.)"}
{"sequence": "CACGTGCATCTGTCAGTGACACATTACTACTACCACAACTCGGAGTCACCTAGTGCAG", "binding signal": "4680 fluorescence intensity (a.u.)"}
{"sequence": "ATGACAGACAACCATGCAGTCCTGCAATGCAAAACGCATTCGGAGTCACCTAGTGCAG", "binding signal": "3230 fluorescence intensity (a.u.)"}
{"sequence": "TTGCTCTGCAGCTCACAGGTCATGGCAAACTAATTAAATTCGGAGTCACCTAGTGCAG", "binding signal": "4230 fluorescence intensity (a.u.)"}
{"sequence": "TGTTGGTGGGGTCCCGTACGTGTGGTTTACGCGTCCCGTTCGGAGTCACCTAGTGCAG", "binding signal": "3380 fluorescence intensity (a.u.)"}
{"sequence": "GTGCAACCGAAGGCATGGATGAGGTCAGGATCATCCATCCCGGAGTCACCTAGTGCAG", "binding signal": "3320 fluorescence intensity (a.u.)"}
{"sequence": "CTCCGCTTCGCGCCGTCGCTATCGTCGTCCGCATCGCCTCCGGAGTCACCTAGTGCAG", "binding signal": "3720 fluorescence intensity (a.u.)"}
{"sequence": "TCAGTAGGCCAGTAGCTAGCTGCTGCCTTCACACATCAATCGGAGTCACCTAGTGCAG", "binding signal": "3160 fluorescence intensity (a.u.)"}
{"sequence": "TTTCACACATGTCACGTGTAAGATCTTACAATGTAACTTACGGAGTCACCTAGTGCAG", "binding signal": "4210 fluorescence intensity (a.u.)"}
{"sequence": "GCTTGGTGTTTGTGCTTGTTGTTGCGTTGCGTTTGCTTATCGGAGTCACCTAGTGCAG", "binding signal": "3590 fluorescence intensity (a.u.)"}
{"sequence": "ACACTCTCGATGTATAGATTCACCCACGAGATGATGTGGCCGGAGTCACCTAGTGCAG", "binding signal": "6570 fluorescence intensity (a.u.)"}
{"sequence": "GCAATAACACTTGTTATACCGATCGTATCCGACGTGGCTACGGAGTCACCTAGTGCAG", "binding signal": "13900 fluorescence intensity (a.u.)"}
{"sequence": "GGGTGGTCGACGAGGACGTGGAGCGCCACGCGGTCCCCGGCGGAGTCACCTAGTGCAG", "binding signal": "7010 fluorescence intensity (a.u.)"}
{"sequence": "CCCTCCCAAACCCTCGCGCGCGCTCTGCGGCTTCTCTCTCCGGAGTCACCTAGTGCAG", "binding signal": "12700 fluorescence intensity (a.u.)"}
{"sequence": "CTAGCTTTGAGGTGGAGGTGGTGGTGGAGGAGGAGGAGGACGGAGTCACCTAGTGCAG", "binding signal": "3340 fluorescence intensity (a.u.)"}
{"sequence": "GCGGCCTCGTCTACAACGCCGGCCCGCACTTCCACATCAACGGAGTCACCTAGTGCAG", "binding signal": "3470 fluorescence intensity (a.u.)"}
{"sequence": "GCACACTGACACACAGTCACACACCATCCCGCTCTCTCCACGGAGTCACCTAGTGCAG", "binding signal": "5750 fluorescence intensity (a.u.)"}
{"sequence": "CCAAAACCAGCAAGCCACAGCCTGCCATGTCATGTTTGTACGGAGTCACCTAGTGCAG", "binding signal": "9780 fluorescence intensity (a.u.)"}
{"sequence": "CGTACGGCACCGAGTTATCGCCGCCAGGTCAGTTGGTTTACGGAGTCACCTAGTGCAG", "binding signal": "3690 fluorescence intensity (a.u.)"}
{"sequence": "AAAATCATTCAGTTAAACATTATCCAACGCGGCATTACCCCGGAGTCACCTAGTGCAG", "binding signal": "5870 fluorescence intensity (a.u.)"}
{"sequence": "CATCATGACATGTGTTATGAAGTGATGATGGGACCATTCCCGGAGTCACCTAGTGCAG", "binding signal": "4120 fluorescence intensity (a.u.)"}
{"sequence": "ATGGCGGGCAATGCGGTTAGCTAATCAATGGCCACGCTGACGGAGTCACCTAGTGCAG", "binding signal": "3160 fluorescence intensity (a.u.)"}
{"sequence": "ATTTGTCGTGACATCACATCGCCTGTGTCATGGCGATGACCGGAGTCACCTAGTGCAG", "binding signal": "5160 fluorescence intensity (a.u.)"}
{"sequence": "CAAGAAGTATGTCATAGCTGAGTCATGATATGTATAACTCCGGAGTCACCTAGTGCAG", "binding signal": "14000 fluorescence intensity (a.u.)"}
{"sequence": "TTCCTAGTTGTGCAGCAGATGTTTATTTCGTGTGACTGTGCGGAGTCACCTAGTGCAG", "binding signal": "4210 fluorescence intensity (a.u.)"}
{"sequence": "GTCATTGTATTGACACTTCTAGTCAGCTTCAGCATGAAGGCGGAGTCACCTAGTGCAG", "binding signal": "17600 fluorescence intensity (a.u.)"}
